Test results as given in patent publication US12129222B2, “Production of bitter principle derivatives” (Julius-Maximilians-Universitaet Wuerzburg, priority 2016, dated 2024).

Assay: Taste testing by means of an electronic tongue (electric potentials of aqueous solutions)
Conditions: for taste indicated by the electrical potentials: electronic tongue, compared with denatonium benzoate

| SMILES | potential of aqueous solution, electronic tongue (sensor SB2BT0, 1 mM) | taste indicated by the electrical potentials | potential of aqueous solution, electronic tongue (sensor SB2AC0, 0.05 mM) [mV] | potential of aqueous solution, electronic tongue (sensor SB2AC0, 0.1 mM) [mV] | potential of aqueous solution, electronic tongue (sensor SB2AC0, 0.5 mM) [mV] | potential of aqueous solution, electronic tongue (sensor SB2AC0, 1 mM) [mV] | potential of aqueous solution, electronic tongue (sensor SB2AN0, 0.05 mM) [mV] | potential of aqueous solution, electronic tongue (sensor SB2AN0, 0.1 mM) [mV] | potential of aqueous solution, electronic tongue (sensor SB2AN0, 0.5 mM) [mV] | potential of aqueous solution, electronic tongue (sensor SB2AN0, 1 mM) [mV] | potential of aqueous solution, electronic tongue (sensor SB2BT0, 0.05 mM) [mV] | potential of aqueous solution, electronic tongue (sensor SB2BT0, 0.1 mM) [mV] | potential of aqueous solution, electronic tongue (sensor SB2BT0, 0.5 mM) [mV] |
| --- | --- | --- | --- | --- | --- | --- | --- | --- | --- | --- | --- | --- | --- |
| CC[N+](CC)(CC(=O)Nc1c(C)cccc1C)Cc1ccccc1.O=C([O-])c1ccccc1 [denatonium benzoate, benzyldiethyl(2,6-xylylcarbamoyl)methylammonium benzoate, reference compound] | ~47 mV and ~42 mV | – | – | – | – | – | – | – | – | – | – | – | – |
| CCOC(=O)CNC(=O)c1ccc(C[N+](CC)(CC)CC(=O)Nc2c(C)cccc2C)cc1.[Br-] [2-(2,6-Dimethylphenylamino)N-(4-(2-ethoxy-2-oxoethylcarbamoyl)benzyl)-N,N-diethyl-2-oxoethane Ammonium Bromide] | ~5 mV | strongly bitter | ~−93 | ~−88 | ~−52 | ~−42 | ~−70 | ~−60 | ~−30 | ~−10 | ~−95 | ~−94 | ~−35 |
| CC[N+](CC)(CC(=O)Nc1c(C)cccc1C)Cc1cccc(C(=O)OC)c1.[Br-] [2-(2,6-dimethylphenylamino)-N,N-diethyl-N-(3-(methoxycarbonyl)benzyl)-2-oxoethane Ammonium Bromide] | ~44 mV | strongly bitter | ~−75 | ~−65 | ~−32 | ~−20 | ~−90 | ~−88.5 | ~−60 | ~−21.5 | ~−73 | ~−72 | ~7 |

“And” between values parts separate entries of the source, which are not always exact repeats. Equal entries are not always repeated.
